Test results from publication doi:10.1101/2023.04.27.538571.
Changes are numbered by the printed parent chain. Numbers in names are those of the source. These are yes or no findings as the source states them, for the method shown. In cells and extracts the contact can be indirect. For some assays here: A result given as binding can be weak or reduced; the word gives no strength. For some assays here: Sequences can lack the tags named with a protein. Each block holds one molecule with its values, some of them ahead of it.

Key:
[1] = biological target: T1, nYFP-IRT1vr (Arabidopsis thaliana) (UniProt Q38856); assay: split reporter
T1 sequence: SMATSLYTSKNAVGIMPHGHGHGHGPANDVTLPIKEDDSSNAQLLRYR

[2] = biological target: EHB1-GFP (Arabidopsis thaliana); assay: FRET or BRET
[3] = biological target: nYFP-EHB1 (Arabidopsis thaliana); assay: split reporter

B1: TTN5^T30N-mCherry (protein, UniProt Q9ZPX1 1-185)
chain: MGLLSIIRKIKKKEKEMRILMVGLDNSGKNTIVLKINGEDTSVISPTLGFNIKTIIYQKYTLNIWDVGGQKTIRSYWRNYFEQTDGLVWVVDSSDLRRLDDCKMELDNLLKEERLAGSSLLILANKQDIQGALTPDEIGKVLNLESMDKSRHWKIVGCSAYTGEGLLEGFDWLVQDIASRIYMLD
binding [2]: binds

B2: TTN5^Q70L-mCherry (protein, UniProt Q9ZPX1 1-185)
chain: B1 chain with N30T, Q70L
binding [2]: binds

Results, then the molecule that gave them:

binding [1]: no binding
Molecule: cYFP-EHB1Δsig (Arabidopsis thaliana)

binding [3]: no binding
B3: cYFP-TTN5^Q70L (protein, UniProt Q9ZPX1 1-185)
chain: B1 chain with N30T, Q70L

binding [3]: no binding
B4: cYFP-TTN5^T30N (protein, UniProt Q9ZPX1 1-185)
chain: B1 chain
